Test results: the supplement of paper PMC10849652
This is one part of the list.

Chains of the proteins cited; added tags and fusions are not shown. Lines headed by an entry give the natural chain unless they say otherwise; changes in a name come on top.
UniProt O43422: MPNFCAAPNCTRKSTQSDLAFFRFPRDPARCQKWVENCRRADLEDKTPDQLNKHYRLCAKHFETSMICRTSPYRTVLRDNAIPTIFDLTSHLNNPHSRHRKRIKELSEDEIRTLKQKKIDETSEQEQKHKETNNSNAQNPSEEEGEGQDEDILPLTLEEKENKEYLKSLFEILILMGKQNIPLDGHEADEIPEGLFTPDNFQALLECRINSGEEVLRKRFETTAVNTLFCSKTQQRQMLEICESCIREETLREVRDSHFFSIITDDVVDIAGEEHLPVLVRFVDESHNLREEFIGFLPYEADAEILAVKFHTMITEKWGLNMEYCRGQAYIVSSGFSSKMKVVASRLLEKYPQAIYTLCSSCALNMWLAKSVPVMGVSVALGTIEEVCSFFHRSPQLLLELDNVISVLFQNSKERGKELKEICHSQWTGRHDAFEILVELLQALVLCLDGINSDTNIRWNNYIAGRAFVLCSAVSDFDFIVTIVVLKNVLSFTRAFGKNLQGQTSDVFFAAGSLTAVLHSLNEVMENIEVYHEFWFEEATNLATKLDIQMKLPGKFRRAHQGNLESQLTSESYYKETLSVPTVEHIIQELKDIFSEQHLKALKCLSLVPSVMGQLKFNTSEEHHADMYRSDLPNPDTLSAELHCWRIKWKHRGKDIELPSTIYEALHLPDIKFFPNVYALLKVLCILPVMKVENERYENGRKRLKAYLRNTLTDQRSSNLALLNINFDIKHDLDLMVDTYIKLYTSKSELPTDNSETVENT
UniProt Q9BVK6: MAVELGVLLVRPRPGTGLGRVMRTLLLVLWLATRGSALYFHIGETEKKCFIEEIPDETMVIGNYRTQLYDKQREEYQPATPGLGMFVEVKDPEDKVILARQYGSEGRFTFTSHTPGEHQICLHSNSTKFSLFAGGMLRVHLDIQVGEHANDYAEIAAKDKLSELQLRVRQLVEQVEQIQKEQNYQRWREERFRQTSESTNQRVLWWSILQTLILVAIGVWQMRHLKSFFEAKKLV
UniProt Q9P016: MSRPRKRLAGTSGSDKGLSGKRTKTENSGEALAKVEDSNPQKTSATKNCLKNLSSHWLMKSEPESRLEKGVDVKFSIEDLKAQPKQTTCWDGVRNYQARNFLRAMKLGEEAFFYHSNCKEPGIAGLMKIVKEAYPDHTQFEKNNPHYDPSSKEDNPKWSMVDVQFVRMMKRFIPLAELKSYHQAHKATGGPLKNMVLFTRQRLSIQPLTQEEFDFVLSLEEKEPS
UniProt Q92544: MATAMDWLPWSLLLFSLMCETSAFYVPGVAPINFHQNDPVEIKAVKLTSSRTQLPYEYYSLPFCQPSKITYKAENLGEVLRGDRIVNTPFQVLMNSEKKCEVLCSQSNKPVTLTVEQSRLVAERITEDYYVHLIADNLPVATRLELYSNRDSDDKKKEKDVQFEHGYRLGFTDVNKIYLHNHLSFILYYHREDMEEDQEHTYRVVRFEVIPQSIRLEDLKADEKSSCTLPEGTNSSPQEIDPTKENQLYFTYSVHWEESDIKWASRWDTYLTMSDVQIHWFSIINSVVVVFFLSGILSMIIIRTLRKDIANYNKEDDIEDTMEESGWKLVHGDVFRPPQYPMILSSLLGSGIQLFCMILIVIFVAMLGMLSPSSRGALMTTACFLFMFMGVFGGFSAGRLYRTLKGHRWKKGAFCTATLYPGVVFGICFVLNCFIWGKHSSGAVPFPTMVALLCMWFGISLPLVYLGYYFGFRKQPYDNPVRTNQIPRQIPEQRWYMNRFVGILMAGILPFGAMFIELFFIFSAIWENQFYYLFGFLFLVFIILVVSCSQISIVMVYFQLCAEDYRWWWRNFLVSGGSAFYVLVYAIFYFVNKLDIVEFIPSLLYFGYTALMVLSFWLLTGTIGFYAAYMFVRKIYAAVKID
UniProt Q86UB9: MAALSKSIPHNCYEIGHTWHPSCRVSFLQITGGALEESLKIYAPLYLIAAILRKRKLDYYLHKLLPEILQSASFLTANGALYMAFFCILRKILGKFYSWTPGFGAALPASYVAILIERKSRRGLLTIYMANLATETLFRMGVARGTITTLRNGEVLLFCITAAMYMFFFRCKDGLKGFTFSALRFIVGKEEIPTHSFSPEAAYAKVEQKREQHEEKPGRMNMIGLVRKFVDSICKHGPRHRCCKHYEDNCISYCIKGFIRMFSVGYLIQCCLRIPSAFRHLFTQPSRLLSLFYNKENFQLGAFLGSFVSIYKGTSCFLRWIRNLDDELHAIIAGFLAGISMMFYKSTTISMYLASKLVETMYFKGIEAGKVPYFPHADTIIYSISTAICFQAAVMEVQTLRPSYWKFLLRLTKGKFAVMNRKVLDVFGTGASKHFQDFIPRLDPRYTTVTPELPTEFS
UniProt Q5T1C6: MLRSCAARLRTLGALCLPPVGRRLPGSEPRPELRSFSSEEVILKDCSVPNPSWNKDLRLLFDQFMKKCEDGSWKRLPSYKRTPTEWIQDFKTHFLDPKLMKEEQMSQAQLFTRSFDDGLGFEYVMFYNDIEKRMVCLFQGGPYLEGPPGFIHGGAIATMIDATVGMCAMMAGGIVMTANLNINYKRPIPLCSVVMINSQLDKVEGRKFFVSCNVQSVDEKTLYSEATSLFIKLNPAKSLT
UniProt Q8IUX1: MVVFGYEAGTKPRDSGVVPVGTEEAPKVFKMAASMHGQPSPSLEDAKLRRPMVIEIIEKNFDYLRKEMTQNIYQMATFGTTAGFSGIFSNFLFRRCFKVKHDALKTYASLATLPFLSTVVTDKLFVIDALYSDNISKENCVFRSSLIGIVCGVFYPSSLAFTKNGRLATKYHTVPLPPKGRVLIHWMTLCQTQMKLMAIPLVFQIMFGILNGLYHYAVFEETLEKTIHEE
UniProt Q04726: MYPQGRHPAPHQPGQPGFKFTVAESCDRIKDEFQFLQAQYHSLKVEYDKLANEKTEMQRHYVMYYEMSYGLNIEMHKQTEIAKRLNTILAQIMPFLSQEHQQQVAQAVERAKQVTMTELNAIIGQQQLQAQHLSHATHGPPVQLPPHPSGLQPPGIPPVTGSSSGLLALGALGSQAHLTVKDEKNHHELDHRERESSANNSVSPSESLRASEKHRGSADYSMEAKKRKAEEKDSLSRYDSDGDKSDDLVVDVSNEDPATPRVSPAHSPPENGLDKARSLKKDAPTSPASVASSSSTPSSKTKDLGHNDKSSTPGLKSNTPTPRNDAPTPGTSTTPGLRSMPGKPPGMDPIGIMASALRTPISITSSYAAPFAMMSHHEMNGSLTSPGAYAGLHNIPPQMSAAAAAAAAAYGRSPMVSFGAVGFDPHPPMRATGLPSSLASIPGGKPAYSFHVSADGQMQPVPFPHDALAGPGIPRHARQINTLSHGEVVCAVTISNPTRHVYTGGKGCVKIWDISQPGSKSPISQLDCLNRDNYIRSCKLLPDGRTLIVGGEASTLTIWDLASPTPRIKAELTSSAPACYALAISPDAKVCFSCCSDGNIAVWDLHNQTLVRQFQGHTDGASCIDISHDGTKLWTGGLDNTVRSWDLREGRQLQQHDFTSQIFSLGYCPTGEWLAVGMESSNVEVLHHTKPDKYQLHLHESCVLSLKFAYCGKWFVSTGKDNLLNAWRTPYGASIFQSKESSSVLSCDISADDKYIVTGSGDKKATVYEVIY
UniProt Q9Y3A6: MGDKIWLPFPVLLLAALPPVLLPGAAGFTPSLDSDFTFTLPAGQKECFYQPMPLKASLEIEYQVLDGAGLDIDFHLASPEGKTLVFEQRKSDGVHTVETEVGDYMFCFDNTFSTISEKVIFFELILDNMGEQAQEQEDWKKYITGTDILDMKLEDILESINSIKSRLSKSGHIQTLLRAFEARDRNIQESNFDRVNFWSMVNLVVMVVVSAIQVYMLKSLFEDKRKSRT
UniProt Q96J01: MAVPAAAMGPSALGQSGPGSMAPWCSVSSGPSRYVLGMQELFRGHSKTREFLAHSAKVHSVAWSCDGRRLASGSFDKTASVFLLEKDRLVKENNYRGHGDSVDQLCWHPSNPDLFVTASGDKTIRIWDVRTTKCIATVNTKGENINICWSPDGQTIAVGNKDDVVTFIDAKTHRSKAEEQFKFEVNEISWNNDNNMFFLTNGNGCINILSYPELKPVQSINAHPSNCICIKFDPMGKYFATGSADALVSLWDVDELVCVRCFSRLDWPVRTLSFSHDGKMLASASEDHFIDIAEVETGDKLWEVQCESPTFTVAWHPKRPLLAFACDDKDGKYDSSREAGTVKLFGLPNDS
UniProt Q8NI27: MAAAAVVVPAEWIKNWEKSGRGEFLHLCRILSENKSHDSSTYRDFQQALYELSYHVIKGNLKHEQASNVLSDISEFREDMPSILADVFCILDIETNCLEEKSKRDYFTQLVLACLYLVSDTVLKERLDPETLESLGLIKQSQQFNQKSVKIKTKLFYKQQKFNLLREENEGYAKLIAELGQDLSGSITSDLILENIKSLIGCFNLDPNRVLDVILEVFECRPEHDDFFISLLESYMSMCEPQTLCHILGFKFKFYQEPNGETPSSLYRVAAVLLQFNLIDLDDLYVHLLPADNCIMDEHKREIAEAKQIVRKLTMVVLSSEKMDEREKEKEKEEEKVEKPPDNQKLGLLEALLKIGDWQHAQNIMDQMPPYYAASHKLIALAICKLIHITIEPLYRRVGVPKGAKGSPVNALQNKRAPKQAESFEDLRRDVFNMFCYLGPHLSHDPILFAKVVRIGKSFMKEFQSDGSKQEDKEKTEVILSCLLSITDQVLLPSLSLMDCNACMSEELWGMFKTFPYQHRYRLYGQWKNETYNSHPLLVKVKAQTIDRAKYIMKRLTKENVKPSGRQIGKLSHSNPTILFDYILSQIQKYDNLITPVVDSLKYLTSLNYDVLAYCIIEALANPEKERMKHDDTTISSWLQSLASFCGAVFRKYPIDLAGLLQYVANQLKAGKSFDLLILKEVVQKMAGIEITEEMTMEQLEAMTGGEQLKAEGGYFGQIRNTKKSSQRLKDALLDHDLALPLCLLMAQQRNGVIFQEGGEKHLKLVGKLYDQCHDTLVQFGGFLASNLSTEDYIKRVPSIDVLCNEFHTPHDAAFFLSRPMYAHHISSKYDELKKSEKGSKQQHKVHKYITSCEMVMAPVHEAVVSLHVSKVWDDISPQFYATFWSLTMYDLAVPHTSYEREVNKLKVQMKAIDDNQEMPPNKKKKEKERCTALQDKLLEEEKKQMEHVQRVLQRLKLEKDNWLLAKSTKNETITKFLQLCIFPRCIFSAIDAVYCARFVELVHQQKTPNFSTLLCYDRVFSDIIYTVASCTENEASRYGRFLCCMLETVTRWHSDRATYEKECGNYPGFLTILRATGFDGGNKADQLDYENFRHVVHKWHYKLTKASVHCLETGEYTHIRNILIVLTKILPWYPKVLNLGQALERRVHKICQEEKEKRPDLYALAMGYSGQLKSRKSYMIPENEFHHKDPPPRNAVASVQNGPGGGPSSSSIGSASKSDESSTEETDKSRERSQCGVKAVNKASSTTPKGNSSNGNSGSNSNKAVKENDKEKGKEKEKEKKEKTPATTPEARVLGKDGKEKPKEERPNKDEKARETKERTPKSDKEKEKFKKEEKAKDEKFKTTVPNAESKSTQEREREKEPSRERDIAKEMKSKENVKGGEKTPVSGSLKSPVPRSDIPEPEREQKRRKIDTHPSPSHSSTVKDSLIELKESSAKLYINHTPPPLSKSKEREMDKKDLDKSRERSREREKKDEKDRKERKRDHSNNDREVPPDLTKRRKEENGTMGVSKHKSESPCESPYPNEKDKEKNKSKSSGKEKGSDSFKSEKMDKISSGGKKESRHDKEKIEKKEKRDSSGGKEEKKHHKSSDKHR
UniProt Q9BTF0: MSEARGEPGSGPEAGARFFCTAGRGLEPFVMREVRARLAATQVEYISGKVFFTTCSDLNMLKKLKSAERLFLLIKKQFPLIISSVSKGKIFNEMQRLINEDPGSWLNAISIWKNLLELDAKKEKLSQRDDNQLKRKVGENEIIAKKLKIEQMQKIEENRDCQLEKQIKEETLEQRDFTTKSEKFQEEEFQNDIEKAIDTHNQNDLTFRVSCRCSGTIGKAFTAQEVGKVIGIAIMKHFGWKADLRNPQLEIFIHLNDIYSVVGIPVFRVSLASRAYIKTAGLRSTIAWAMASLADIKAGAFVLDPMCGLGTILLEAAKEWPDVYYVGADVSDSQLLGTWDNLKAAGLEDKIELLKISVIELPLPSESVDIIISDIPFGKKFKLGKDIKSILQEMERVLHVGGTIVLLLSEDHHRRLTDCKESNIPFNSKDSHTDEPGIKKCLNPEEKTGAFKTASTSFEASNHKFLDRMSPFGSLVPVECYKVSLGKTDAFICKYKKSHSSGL
UniProt Q5U3C3: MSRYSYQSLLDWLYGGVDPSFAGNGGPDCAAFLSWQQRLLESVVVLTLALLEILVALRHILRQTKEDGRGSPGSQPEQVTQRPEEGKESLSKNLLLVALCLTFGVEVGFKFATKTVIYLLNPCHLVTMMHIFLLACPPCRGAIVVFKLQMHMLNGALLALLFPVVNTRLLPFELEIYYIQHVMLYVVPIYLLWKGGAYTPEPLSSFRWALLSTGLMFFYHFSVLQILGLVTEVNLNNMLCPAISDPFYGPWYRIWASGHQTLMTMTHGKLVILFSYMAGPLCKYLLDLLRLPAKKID

Legend:
Assay in all cases: log2 fold change, soluble protein after heating vs DMSO (PISA); higher = thermal stabilisation; K562 lysate, 10 uM; active = over 0.2 and 3.5 SD of the protein, either way, in both replicates (recomputed)
[1] = compound: C1=CC=C(C=C1)[C@H](COC2=CC3=C(C=C2)NC(=O)N3)NC(=O)C4=CC=CN(C4=O)CC5=CC(=C(C=C5)F)F
Procedure, shortened: (§1)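 To prepare the extract, K562 pellets were dounce-homogenised in PBS pH 7.4 with 1 mM MgCl2, giving crude material at 1 mg/mL protein. This was treated with 10 μM compound for 30 min, then heated in aliquots for 3 min over 48°C-58°C before pooling and addition of NP-40 to 0.5% at 4°C. Centrifugation at 21,000xg for 90 min left soluble protein in the supernatant, which TMTpro 16plex LC-MS/MS quantified with equalised channel sums. Results are log-two fold changes in thermal stability compared with solvent controls, from duplicates.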

[2] = compound: CC1=C(SC2=C1C(=N[C@H](C3=NN=C(N32)C)CC(=O)N)C4=CC=C(C=C4)Cl)C
Procedure, shortened: as §1

[3] = compound: CC1=C2C(=CC=C1)N=C(N(C2=O)C3=CC=CC=C3C)CN4C=NC5=C(N=CN=C54)N
Procedure, shortened: as §1

[4] = compound: Cc1sc2c(c1C)C(c1ccc(Cl)cc1)=N[C@@H](CC(=O)OC(C)(C)C)c1nnc(C)n1-2
Procedure, shortened: as §1

[5] = compound: c1ccc([C@@H]2C[C@H]2NC2CCNCC2)cc1
Procedure, shortened: as §1

Measured: log2 fold change

TMEM106B (UniProt Q9NUM4)
inactive: [1] -0.034 | [2] 0.014 | [3] -0.038 | [4] -0.049 | [5] 0.031

THAP12 (UniProt O43422)
inactive: [1] -0.01 | [2] 0.058 | [3] 0.018 | [4] -0.016 | [5] 0.087

TMED9 (UniProt Q9BVK6)
inactive: [1] -0.01 | [2] 0.001 | [3] 0.037 | [4] 0.023 | [5] 0.03

THYN1 (UniProt Q9P016)
inactive: [1] 0.021 | [2] 0.008 | [3] 0.002 | [4] 0.016 | [5] 0.036

TM9SF4 (UniProt Q92544)
inactive: [1] -0.01 | [2] -0.012 | [3] 0.016 | [4] -0.009 | [5] 0.007

TM6SF1 (UniProt Q9BZW5)
inactive: [1] 0.238 | [2] -0.036 | [3] 0.018 | [4] -0.006 | [5] -0.058

TMEM135 (UniProt Q86UB9)
inactive: [1] 0.063 | [2] -0.041 | [3] -0.062 | [4] -0.057 | [5] 0.082

THEM4 (UniProt Q5T1C6)
inactive: [1] 0.058 | [2] 0.039 | [3] 0.059 | [4] -0.079 | [5] -0.063

TMEM126B (UniProt Q8IUX1)
inactive: [1] 0.063 | [2] 0.005 | [3] 0.058 | [4] 0.017 | [5] -0.033

TGFBRAP1 (UniProt Q8WUH2)
inactive: [1] -0.035 | [2] 0.024 | [3] 0 | [4] 0.05 | [5] -0.014

TMEM186 (UniProt Q96B77)
inactive: [1] 0.023 | [2] 0.004 | [3] -0.168 | [4] 0.057 | [5] 0.164

TMEM185B (UniProt Q9H7F4)
inactive: [1] 0.014 | [2] 0.007 | [3] -0.017 | [4] -0.06 | [5] 0.07

TK1 (UniProt K7ERV3)
inactive: [1] -0.044 | [2] 0.007 | [3] -0.017 | [4] -0.002 | [5] -0.037

TIMM50 isoform 2 (UniProt Q3ZCQ8)
inactive: [1] -0.035 | [2] 0.015 | [3] 0.01 | [4] -0.006 | [5] 0.004

TLE3 isoform 4 (UniProt Q04726)
inactive: [1] 0.01 | [2] -0.033 | [3] 0.024 | [4] 0.025 | [5] 0.007

Two neighbouring entries out of the list so far, quoted:
TK1 (UniProt K7ERV3)
inactive: [1] -0.044 | [2] 0.007 | [3] -0.017 | [4] -0.002 | [5] -0.037

TIMM50 isoform 2 (UniProt Q3ZCQ8)
inactive: [1] -0.035 | [2] 0.015 | [3] 0.01 | [4] -0.006 | [5] 0.004

(cont.)

TMED8 (UniProt Q6PL24)
inactive: [1] 0.009 | [2] 0.039 | [3] 0.023 | [4] 0.004 | [5] 0.024

TMED5 (UniProt Q9Y3A6)
inactive: [1] -0.013 | [2] -0.052 | [3] 0.027 | [4] -0.019 | [5] 0.053

THOC3 (UniProt Q96J01)
inactive: [1] -0.01 | [2] 0.027 | [3] -0.008 | [4] 0.049 | [5] 0.028

THOC2 (UniProt Q8NI27)
inactive: [1] 0.02 | [2] 0 | [3] 0.004 | [4] 0.017 | [5] 0.004

TMEM168 (UniProt Q9H0V1)
inactive: [1] 0.002 | [2] 0.017 | [3] -0.011 | [4] -0.043 | [5] -0.04

THOP1 (UniProt P52888)
inactive: [1] -0.005 | [2] 0.024 | [3] -0.002 | [4] -0.007 | [5] -0.027

TJP2 isoform 7 (UniProt Q9UDY2)
inactive: [1] 0.025 | [2] -0.009 | [3] 0.06 | [4] 0.035 | [5] 0.032

THUMPD2 (UniProt Q9BTF0)
inactive: [1] 0.048 | [2] -0.004 | [3] -0.023 | [4] -0.059 | [5] -0.004

TMEM164 (UniProt Q5U3C3)
inactive: [1] -0.13 | [2] -0.155 | [3] 0.111 | [4] -0.217 | [5] -0.543
